Among the data in PMC7862700 are binding signal values, retold here.

The list shows a part of the results. The source does not settle which construct or isoform was used.

In this assay the target is T1, ELF2 (UniProt Q15723).
T1 sequence: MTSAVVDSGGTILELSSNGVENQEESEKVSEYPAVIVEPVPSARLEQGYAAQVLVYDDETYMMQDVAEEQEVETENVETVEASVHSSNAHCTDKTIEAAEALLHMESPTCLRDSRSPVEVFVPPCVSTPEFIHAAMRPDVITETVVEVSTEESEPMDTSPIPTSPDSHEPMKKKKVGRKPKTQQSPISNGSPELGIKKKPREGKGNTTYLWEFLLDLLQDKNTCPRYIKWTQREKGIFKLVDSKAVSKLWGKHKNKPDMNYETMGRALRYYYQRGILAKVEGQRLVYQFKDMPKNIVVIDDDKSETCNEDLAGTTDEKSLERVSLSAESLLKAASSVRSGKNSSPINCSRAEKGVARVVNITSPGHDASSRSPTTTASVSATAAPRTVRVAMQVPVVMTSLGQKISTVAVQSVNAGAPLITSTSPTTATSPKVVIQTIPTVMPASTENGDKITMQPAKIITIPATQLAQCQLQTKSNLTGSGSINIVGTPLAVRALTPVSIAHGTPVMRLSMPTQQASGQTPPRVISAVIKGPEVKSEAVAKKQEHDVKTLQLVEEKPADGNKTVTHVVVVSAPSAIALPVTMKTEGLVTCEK
The experiment in a line: DAPPL (digital affinity profiling via proximity ligation, sequencing). To be noted: 10 mM Tris-HCl pH 7.5, 50 mM NaCl, 1 mM DTT, 4% glycerol, room temperature, 30 min; GST-TFs on glutathione beads, 16-mer random dsDNA library, 0.1% …; high values mean tight binding; double strand, one strand shown; scale: fold enrichment (6-mer frequency, TF over GST control).
ATTGTT showed a binding signal of 1.53.
For the sequence ATAACC, the binding signal came to 1.22.
The figure for CACTCC is 1.2; for CACTAT it is 1.18; for AATATC it is 1.66.
TCTGGT returned a binding signal of 1.23.
Then TGAATG, with 1.11; and TTTCTG, with 1.33.
Then TTGGCT, with 1.04; and AGACTT, with 1.11; and ACTTGG, with 1.15.
TATGCT yielded a binding signal of 1.25.
The sequence TATTGC registered a binding signal of 1.32.
Sequence ATCGAC gave a binding signal of 1.09.
The sequence TGCATT came in with a binding signal of 1.32.
CAATAC came in with a binding signal of 1.27.
For the sequence TCTGGA, the binding signal turned out to be 0.956.
The figure for GGAAAT is 3.79; for AGTCTC it is 0.964; for TCTTTT it is 1.46.
For GGTTAA, the binding signal stood at 0.886.
Then TCTAAC, with 1.15.
Then AGAAAA, with 1.01; and ATGCGC, with 1.11.
As to TTTCGC, the binding signal stood at 1.14.
Sequence TAGTAG came in with a binding signal of 0.988.
Then CAGATG, with 0.961.
In turn, TCCAGA displayed a binding signal of 0.828.
Then TCCAGT, with 0.649; and CTACGG, with 1.3; and GCCTTA, with 1.12.
For TATAAA, the binding signal stood at 1.24.
CTCGGG yielded a binding signal of 0.964.
Then GATATT, with 1.21; and TTGGAA, with 0.937; and AAAGAT, with 1.2.
Then AATCCG, with 1.73; and TTCTAG, with 1.18; and TTGTGT, with 1.14.
Then AAGTAT, with 1.55.
